In patent US20130323249A1:
These are yes or no findings as the source states them, for the method shown. Some binding calls cover weakened binding; strength is not graded here.

Amino acid sequences for entries named in this document (tags omitted). Residues count along the entry.
UniProt Q9NZQ7, residues 19-290: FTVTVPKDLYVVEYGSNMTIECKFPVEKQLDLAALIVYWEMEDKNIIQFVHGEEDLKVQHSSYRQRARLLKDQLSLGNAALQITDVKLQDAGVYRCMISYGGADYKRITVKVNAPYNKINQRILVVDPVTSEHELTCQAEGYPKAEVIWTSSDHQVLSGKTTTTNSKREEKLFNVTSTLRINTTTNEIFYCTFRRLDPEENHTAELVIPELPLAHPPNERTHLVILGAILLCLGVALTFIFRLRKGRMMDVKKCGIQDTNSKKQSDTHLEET

Target: human PD-L1 expressed on the surface of cells (human) (UniProt Q9NZQ7)
Test: flow cytometry on activated human lymphocytes (FIG. 1 legend)

B1: H10 anti-PD-L1 antibody (antibody, V domains shown)
VH: EVQLVQSGGGLVQPGGSLRLSCAASGFTFSSYSMNWVRQAPGKGLEWVSYISSSSSTIYYADSVKGRFTISRDNAKNSLYLQMNSLRDEDTAVYYCARGDYYYGMDVWGQGTTVTVSS
VL: EIVLTQSPSSLSASIGDRVTLTCRASQSIRRFLNWYQQKPGKAPELLIYTASSLQSGVPSRFSGSGSGTDFTLTINSLQPEDFATYYCQQSYAVSPYTFGQGTKVEIR
For B1, which binding is on record?
The binding was “binds”.
